# Results from the supplement of paper PMC8728848.
# This is one part of the list.
# B1: OS9 (Arabidopsis thaliana) (protein)
# chain: MRGSHHHHHHGMASMTGGQQMGRDLYDDDDKSRLQIFPAHLVGTFSRNNREPKYKIEFLPEDSPFHPGDNLESMVMLDKHGNRFLCYLPKEEKATSGWTSSQQNISTVMMETQQLVKLKTPDELLQPLSEKCLFRQEGWWSYEFCHQKYVRQLHVEDENKIVQEFFLGTFDPEATAAFNQTVSDASTDASQRYHSHVYTNGTTCDLTGSPAEVEVRFVCAETRAMVTSITELSTCKYALTVQCPTLCKHPLFQLEKPVSHTIHCNAIPVEEDATRNKEEQAVDESPKMIADS
# Experiments:
# Assay in all cases: glycan array binding signal (z-score within array); higher = stronger binding
# Conditions in all cases: glycan notation: IUPAC condensed, linker removed; mutation: R201A
# [1] = molecular target: Neu5Ac(a2-6)Gal(b1-4)GlcNAc(b1-3)Gal(b1-4)GlcNAc(b1-3)GalNAc
# Procedure, shortened: (§1)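 The binding signal is a Z-score computed within each array and averaged over linkers. Arrays of the same protein sequence at different concentrations or buffers were also averaged together. Data originate from 3228 arrays in the Consortium for Functional Glycomics database, kept only where the protein sequence was available.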
# [2] = molecular target: Neu5Ac(a2-6)Gal(b1-4)GlcNAc(b1-3)Gal(b1-4)GlcNAc(b1-3)[Neu5Ac(a2-6)Gal(b1-4)GlcNAc(b1-3)Gal(b1-4)GlcNAc(b1-6)]GalNAc
# Procedure, shortened: as §1
# [3] = molecular target: Neu5Ac(a2-6)Gal(b1-4)GlcNAc(b1-3)Gal(b1-4)GlcNAc(b1-6)[Gal(b1-3)]GalNAc
# Procedure, shortened: as §1
# [4] = molecular target: Neu5Ac(a2-6)Gal(b1-4)GlcNAc(b1-3)Gal(b1-4)[Fuc(a1-3)]GlcNAc(b1-3)Gal(b1-4)[Fuc(a1-3)]GlcNAc
# Procedure, shortened: as §1
# [5] = molecular target: Neu5Ac(a2-6)Gal(b1-4)GlcNAc(b1-3)GalNAc
# Procedure, shortened: as §1
# [6] = molecular target: Neu5Ac(a2-6)Gal(b1-4)GlcNAc(b1-3)[Neu5Ac(a2-6)Gal(b1-4)GlcNAc(b1-6)]GalNAc
# Procedure, shortened: as §1
# [7] = molecular target: Neu5Ac(a2-6)Gal(b1-4)GlcNAc(b1-6)GalNAc
# Procedure, shortened: as §1
# [8] = molecular target: Neu5Ac(a2-6)Gal(b1-4)GlcNAc(b1-6)[Gal(b1-3)GlcNAc(b1-3)]Gal(b1-4)Glc
# Procedure, shortened: as §1
# [9] = molecular target: Neu5Ac(a2-6)Gal(b1-4)GlcNAc(b1-6)[Gal(b1-3)]GalNAc
# Procedure, shortened: as §1
# [10] = molecular target: Neu5Ac(a2-6)Gal(b1-4)GlcNAc6S
# Procedure, shortened: as §1
# [11] = molecular target: Neu5Ac(a2-6)GalNAc
# Procedure, shortened: as §1
# [12] = molecular target: Neu5Ac(a2-6)GalNAc(b1-4)GlcNAc
# Procedure, shortened: as §1
# [13] = molecular target: Neu5Ac(a2-6)GalNAc(b1-4)GlcNAc6S
# Procedure, shortened: as §1
# [14] = molecular target: Neu5Ac(a2-6)GlcNAc(b1-4)GlcNAc
# Procedure, shortened: as §1
# [15] = molecular target: Neu5Ac(a2-6)GlcNAc(b1-4)GlcNAc(b1-4)GlcNAc
# Procedure, shortened: as §1
# [16] = molecular target: Neu5Ac(a2-8)Neu5Ac
# Procedure, shortened: as §1
# [17] = molecular target: Neu5Ac(a2-8)Neu5Ac(a2-3)Gal(b1-3)GalNAc(b1-4)[Neu5Ac(a2-3)]Gal(b1-4)Glc
# Procedure, shortened: as §1
# [18] = molecular target: Neu5Ac(a2-8)Neu5Ac(a2-3)Gal(b1-3)GalNAc(b1-4)[Neu5Ac(a2-8)Neu5Ac(a2-3)]Gal(b1-4)Glc
# Procedure, shortened: as §1
# [19] = molecular target: Neu5Ac(a2-8)Neu5Ac(a2-3)Gal(b1-4)Glc
# Procedure, shortened: as §1
# [20] = molecular target: Neu5Ac(a2-8)Neu5Ac(a2-3)Gal(b1-4)GlcNAc
# Procedure, shortened: as §1
# [21] = molecular target: Neu5Ac(a2-8)Neu5Ac(a2-3)[Gal(b1-3)GalNAc(b1-4)]Gal(b1-4)Glc
# Procedure, shortened: as §1
# [22] = molecular target: Neu5Ac(a2-8)Neu5Ac(a2-3)[GalNAc(b1-4)]Gal(b1-4)Glc
# Procedure, shortened: as §1
# [23] = molecular target: Neu5Ac(a2-8)Neu5Ac(a2-8)Neu5Ac
# Procedure, shortened: as §1
# [24] = molecular target: Neu5Ac(a2-8)Neu5Ac(a2-8)Neu5Ac(a2-3)Gal(b1-4)Glc
# Procedure, shortened: as §1
# [25] = molecular target: Neu5Ac(a2-8)Neu5Ac(a2-8)Neu5Ac(a2-3)[Gal(b1-3)GalNAc(b1-4)]Gal(b1-4)Glc
# Procedure, shortened: as §1
# [26] = molecular target: Neu5Ac(a2-8)Neu5Ac(a2-8)Neu5Ac(a2-3)[GalNAc(b1-4)]Gal(b1-4)Glc
# Procedure, shortened: as §1
# [27] = molecular target: Neu5Ac(a2-8)Neu5Ac(a2-8)Neu5Ac(a2-8)Neu5Ac(a2-3)[GalNAc(b1-4)]Gal(b1-4)Glc
# Procedure, shortened: as §1
# [28] = molecular target: Neu5Ac(a2-8)Neu5Gc(a2-3)Gal(b1-4)GlcNAc
# Procedure, shortened: as §1
# [29] = molecular target: Neu5Ac(b2-6)Gal(b1-4)GlcNAc
# Procedure, shortened: as §1
# [30] = molecular target: Neu5Ac(b2-6)GalNAc
# Procedure, shortened: as §1
# [31] = molecular target: Neu5Ac9Ac(a2-3)Gal(b1-3)GlcNAc
# Procedure, shortened: as §1
# [32] = molecular target: Neu5Ac9Ac(a2-3)Gal(b1-4)GlcNAc
# Procedure, shortened: as §1
# [33] = molecular target: Neu5Ac9Ac(a2-6)Gal(b1-4)GlcNAc
# Procedure, shortened: as §1
# [34] = molecular target: Neu5Gc(a2-3)Gal(b1-3)GlcNAc
# Procedure, shortened: as §1
# [35] = molecular target: Neu5Gc(a2-3)Gal(b1-3)[Fuc(a1-4)]GlcNAc
# Procedure, shortened: as §1
# [36] = molecular target: Neu5Gc(a2-3)Gal(b1-4)Glc
# Procedure, shortened: as §1
# [37] = molecular target: Neu5Gc(a2-3)Gal(b1-4)GlcNAc
# Procedure, shortened: as §1
# [38] = molecular target: Neu5Gc(a2-3)Gal(b1-4)GlcNAc(b1-3)Gal(b1-4)GlcNAc(b1-2)Man(a1-3)[Neu5Gc(a2-3)Gal(b1-4)GlcNAc(b1-3)Gal(b1-4)GlcNAc(b1-2)Man(a1-6)]Man(b1-4)GlcNAc(b1-4)GlcNAc
# Procedure, shortened: as §1
# [39] = molecular target: Neu5Gc(a2-3)Gal(b1-4)[Fuc(a1-3)]GlcNAc
# Procedure, shortened: as §1
# [40] = molecular target: Neu5Gc(a2-6)Gal(b1-4)GlcNAc
# Procedure, shortened: as §1
# [41] = molecular target: Neu5Gc(a2-6)GalNAc
# Procedure, shortened: as §1
# [42] = molecular target: Neu5Gc(a2-8)Neu5Ac(a2-3)Gal(b1-4)GlcNAc
# Procedure, shortened: as §1
# [43] = molecular target: Neu5Gc(a2-8)Neu5Gc(a2-3)Gal(b1-4)GlcNAc
# Procedure, shortened: as §1
# [44] = molecular target: Neu5Gc(a2-8)Neu5Gc(a2-3)Gal(b1-4)GlcNAc(b1-3)Gal(b1-4)GlcNAc
# Procedure, shortened: as §1
# [45] = molecular target: Neu5Gc(a2-8)Neu5Gc(a2-6)Gal(b1-4)GlcNAc
# Procedure, shortened: as §1
# [46] = molecular target: Neu5Gc(b2-6)Gal(b1-4)GlcNAc
# Procedure, shortened: as §1
binder,measurement,setting,value
B1,glycan array binding signal (z-score),[1],0.709
same,glycan array binding signal (z-score),[2],-0.858
same,glycan array binding signal (z-score),[3],1.03
same,glycan array binding signal (z-score),[4],-0.341
same,glycan array binding signal (z-score),[5],-0.858
same,glycan array binding signal (z-score),[6],0.097
same,glycan array binding signal (z-score),[7],0.465
same,glycan array binding signal (z-score),[8],-0.933
same,glycan array binding signal (z-score),[9],-0.582
same,glycan array binding signal (z-score),[10],0.336
same,glycan array binding signal (z-score),[11],-0.021
same,glycan array binding signal (z-score),[12],-0.088
same,glycan array binding signal (z-score),[13],-0.349
same,glycan array binding signal (z-score),[14],-0.223
same,glycan array binding signal (z-score),[15],-0.726
same,glycan array binding signal (z-score),[16],-0.57
same,glycan array binding signal (z-score),[17],0.773
same,glycan array binding signal (z-score),[18],0.862
same,glycan array binding signal (z-score),[19],0.342
same,glycan array binding signal (z-score),[20],-0.573
same,glycan array binding signal (z-score),[21],-0.319
same,glycan array binding signal (z-score),[22],0.744
same,glycan array binding signal (z-score),[23],-0.396
same,glycan array binding signal (z-score),[24],-0.398
same,glycan array binding signal (z-score),[25],-0.453
same,glycan array binding signal (z-score),[26],-0.425
same,glycan array binding signal (z-score),[27],0.783
same,glycan array binding signal (z-score),[28],-0.179
same,glycan array binding signal (z-score),[29],-0.927
same,glycan array binding signal (z-score),[30],-0.749
same,glycan array binding signal (z-score),[31],-0.763
same,glycan array binding signal (z-score),[32],-0.323
same,glycan array binding signal (z-score),[33],0.646
same,glycan array binding signal (z-score),[34],-0.795
same,glycan array binding signal (z-score),[35],-0.288
same,glycan array binding signal (z-score),[36],0.157
same,glycan array binding signal (z-score),[37],-0.006
same,glycan array binding signal (z-score),[38],-0.905
same,glycan array binding signal (z-score),[39],-0.86
same,glycan array binding signal (z-score),[40],-0.137
same,glycan array binding signal (z-score),[41],1.59
same,glycan array binding signal (z-score),[42],-0.473
same,glycan array binding signal (z-score),[43],-0.418
same,glycan array binding signal (z-score),[44],-1.24
same,glycan array binding signal (z-score),[45],-0.691
same,glycan array binding signal (z-score),[46],-0.321

# Given as tab-separated lines: entries from further up
binder	measurement	setting	value
B1	glycan array binding signal (z-score)	[18]	0.862
same	glycan array binding signal (z-score)	[19]	0.342
same	glycan array binding signal (z-score)	[20]	-0.573
